Test results as given in paper PMC8938454.
No constants are given. Whether binding was seen depends on the method and setting. In cells and extracts the contact can be indirect. Here binding means that the protein was enriched with, or labelled near, the bait; the list need not be complete. Tags and fused reporters may be left off the sequences shown.

Sequences of proteins named here, by UniProt entry; tags and fusion partners are left off.
UniProt Q14204: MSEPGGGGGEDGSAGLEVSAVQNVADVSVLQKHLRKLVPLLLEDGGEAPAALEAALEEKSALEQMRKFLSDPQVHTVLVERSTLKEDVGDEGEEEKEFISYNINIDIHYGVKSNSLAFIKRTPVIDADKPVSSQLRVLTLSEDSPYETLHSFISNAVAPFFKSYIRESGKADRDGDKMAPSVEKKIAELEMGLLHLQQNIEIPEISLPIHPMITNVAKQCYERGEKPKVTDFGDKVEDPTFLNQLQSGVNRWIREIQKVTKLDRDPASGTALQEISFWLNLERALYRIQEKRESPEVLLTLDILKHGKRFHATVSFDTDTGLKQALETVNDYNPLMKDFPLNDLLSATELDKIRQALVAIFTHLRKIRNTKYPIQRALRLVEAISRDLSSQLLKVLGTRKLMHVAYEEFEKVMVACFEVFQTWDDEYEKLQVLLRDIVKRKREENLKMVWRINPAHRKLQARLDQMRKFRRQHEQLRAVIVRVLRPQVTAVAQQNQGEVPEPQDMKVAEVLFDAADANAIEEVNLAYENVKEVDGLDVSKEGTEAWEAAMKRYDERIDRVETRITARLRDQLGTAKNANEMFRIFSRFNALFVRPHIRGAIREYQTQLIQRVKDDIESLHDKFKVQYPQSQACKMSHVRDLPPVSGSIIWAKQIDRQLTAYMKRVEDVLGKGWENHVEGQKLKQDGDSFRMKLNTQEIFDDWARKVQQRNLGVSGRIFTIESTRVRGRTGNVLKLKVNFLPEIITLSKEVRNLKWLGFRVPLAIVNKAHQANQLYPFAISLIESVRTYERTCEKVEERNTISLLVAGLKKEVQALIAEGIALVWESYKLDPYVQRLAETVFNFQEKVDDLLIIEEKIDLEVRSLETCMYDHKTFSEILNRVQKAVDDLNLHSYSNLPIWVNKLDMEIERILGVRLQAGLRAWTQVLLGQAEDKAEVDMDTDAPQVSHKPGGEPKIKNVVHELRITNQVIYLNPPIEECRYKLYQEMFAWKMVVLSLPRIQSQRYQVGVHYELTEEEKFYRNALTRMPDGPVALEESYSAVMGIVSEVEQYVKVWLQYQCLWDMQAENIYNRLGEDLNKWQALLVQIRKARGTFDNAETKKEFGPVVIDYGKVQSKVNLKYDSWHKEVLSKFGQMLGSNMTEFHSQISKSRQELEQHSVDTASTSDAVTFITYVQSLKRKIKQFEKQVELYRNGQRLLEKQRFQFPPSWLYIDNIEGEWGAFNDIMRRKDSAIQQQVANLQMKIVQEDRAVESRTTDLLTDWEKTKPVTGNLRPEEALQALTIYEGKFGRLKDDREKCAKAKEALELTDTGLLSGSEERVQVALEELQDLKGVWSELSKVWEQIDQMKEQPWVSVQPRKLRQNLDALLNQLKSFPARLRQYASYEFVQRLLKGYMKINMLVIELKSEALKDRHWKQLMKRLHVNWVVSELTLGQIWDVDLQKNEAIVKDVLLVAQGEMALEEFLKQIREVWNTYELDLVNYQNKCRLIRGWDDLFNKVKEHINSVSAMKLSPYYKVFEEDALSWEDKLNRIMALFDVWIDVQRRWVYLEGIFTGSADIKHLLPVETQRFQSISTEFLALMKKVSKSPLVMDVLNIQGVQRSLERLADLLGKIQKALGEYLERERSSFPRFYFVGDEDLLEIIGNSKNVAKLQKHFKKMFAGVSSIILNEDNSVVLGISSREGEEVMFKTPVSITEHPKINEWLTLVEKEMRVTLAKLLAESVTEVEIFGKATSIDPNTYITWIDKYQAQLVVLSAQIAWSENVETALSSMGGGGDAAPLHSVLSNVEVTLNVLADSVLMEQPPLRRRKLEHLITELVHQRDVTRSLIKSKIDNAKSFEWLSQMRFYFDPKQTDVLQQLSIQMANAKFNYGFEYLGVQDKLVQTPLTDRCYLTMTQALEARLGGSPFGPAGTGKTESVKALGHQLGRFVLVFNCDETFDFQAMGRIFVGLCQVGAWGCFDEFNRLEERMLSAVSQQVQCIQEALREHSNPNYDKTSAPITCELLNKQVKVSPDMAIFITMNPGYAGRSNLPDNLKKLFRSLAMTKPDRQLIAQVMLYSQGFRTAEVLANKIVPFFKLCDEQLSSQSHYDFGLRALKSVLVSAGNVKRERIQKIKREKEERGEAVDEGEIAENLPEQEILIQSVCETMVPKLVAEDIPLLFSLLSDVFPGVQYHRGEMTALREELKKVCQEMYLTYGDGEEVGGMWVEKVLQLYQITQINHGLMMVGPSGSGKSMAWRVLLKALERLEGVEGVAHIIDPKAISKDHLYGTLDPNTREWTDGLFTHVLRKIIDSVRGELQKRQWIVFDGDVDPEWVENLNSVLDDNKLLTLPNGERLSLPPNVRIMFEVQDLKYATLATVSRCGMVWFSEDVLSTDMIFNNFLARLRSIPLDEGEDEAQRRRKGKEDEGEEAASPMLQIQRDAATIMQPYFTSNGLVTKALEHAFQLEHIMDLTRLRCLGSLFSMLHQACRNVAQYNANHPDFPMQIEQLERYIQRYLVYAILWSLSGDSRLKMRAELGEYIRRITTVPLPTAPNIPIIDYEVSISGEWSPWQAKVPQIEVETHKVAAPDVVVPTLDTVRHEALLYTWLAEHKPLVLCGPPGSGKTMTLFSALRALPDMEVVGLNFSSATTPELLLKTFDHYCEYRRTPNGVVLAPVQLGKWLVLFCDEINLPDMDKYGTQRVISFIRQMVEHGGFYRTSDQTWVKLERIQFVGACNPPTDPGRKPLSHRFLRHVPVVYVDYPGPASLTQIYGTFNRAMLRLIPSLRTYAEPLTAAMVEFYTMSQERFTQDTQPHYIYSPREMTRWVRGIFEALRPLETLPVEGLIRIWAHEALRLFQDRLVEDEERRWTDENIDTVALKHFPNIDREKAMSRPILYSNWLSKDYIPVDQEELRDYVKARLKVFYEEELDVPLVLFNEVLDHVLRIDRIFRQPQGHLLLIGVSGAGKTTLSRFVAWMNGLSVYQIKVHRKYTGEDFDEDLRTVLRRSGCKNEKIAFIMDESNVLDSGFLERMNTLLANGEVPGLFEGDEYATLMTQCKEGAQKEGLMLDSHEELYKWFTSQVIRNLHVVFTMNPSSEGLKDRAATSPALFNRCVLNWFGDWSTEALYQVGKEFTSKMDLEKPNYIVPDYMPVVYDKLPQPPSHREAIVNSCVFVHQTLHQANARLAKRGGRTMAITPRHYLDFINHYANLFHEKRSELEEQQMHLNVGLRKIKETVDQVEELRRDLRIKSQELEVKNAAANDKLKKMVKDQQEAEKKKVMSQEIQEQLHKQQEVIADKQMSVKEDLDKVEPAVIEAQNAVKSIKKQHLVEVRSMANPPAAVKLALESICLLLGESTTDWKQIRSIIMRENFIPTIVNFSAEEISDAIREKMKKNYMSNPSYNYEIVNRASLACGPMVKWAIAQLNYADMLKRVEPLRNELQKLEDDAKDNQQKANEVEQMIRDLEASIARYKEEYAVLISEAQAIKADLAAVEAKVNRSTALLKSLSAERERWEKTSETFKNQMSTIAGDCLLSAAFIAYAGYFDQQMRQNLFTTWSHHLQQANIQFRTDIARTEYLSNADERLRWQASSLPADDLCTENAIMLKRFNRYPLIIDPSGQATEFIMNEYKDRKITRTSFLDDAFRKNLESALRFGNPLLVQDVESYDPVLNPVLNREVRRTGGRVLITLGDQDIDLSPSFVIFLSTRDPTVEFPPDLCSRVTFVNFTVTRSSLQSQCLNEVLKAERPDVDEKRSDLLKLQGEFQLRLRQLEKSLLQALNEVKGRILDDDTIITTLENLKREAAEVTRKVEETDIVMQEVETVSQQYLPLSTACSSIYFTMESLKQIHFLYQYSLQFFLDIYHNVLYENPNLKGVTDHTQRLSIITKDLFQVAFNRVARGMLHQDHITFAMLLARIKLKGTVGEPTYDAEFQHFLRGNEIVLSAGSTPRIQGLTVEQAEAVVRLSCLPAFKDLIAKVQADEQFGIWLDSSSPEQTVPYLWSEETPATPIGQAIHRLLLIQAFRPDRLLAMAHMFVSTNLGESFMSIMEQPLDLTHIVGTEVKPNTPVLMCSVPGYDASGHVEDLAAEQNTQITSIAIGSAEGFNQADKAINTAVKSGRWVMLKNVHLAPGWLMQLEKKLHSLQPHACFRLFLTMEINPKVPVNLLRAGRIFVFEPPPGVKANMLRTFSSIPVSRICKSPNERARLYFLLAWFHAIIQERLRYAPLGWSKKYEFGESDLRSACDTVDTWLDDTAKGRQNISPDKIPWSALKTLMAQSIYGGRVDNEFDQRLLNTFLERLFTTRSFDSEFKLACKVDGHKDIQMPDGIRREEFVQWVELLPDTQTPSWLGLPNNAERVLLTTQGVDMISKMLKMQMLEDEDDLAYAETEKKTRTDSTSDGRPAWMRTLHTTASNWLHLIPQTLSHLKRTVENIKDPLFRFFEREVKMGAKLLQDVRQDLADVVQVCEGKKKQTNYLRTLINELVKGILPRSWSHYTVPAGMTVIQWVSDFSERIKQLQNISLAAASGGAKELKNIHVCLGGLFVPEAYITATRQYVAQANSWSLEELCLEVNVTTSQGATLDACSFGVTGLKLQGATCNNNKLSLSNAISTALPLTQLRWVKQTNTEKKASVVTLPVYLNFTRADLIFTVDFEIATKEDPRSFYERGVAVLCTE

T1: GST-tagged-RUFY3 (WT) (human) (UniProt Q7L099)
T1 sequence: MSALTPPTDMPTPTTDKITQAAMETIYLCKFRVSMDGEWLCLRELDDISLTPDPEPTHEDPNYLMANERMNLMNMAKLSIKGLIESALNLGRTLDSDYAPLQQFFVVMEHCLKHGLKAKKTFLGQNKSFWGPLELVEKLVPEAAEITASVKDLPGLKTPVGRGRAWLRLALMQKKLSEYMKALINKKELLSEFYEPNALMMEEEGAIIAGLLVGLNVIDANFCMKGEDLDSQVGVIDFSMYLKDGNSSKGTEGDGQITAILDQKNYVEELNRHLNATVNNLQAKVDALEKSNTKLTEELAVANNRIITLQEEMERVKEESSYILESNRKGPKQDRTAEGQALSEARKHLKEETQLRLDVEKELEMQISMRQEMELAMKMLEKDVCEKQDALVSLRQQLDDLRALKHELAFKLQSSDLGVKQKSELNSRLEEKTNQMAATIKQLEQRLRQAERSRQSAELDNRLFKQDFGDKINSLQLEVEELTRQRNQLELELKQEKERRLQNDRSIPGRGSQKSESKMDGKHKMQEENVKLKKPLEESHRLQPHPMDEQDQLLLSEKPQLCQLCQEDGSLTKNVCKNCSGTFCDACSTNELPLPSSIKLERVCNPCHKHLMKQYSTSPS


Target: T1, GST-tagged-RUFY3 (WT) (human)
Assay: affinity purification with mass spectrometry; recombinant GST-RUFY3 (GST-only as control) on glutathione resin incubated with HEK293T lysates; Coomassie bands specific for GST-RUFY3 cut out and identified; only the target purified

Row | binding | Molecule
1 | binds | cytoplasmic dynein heavy chain (DYNC1H1/DHC), endogenous in HEK293T (from UniProt Q14204 1-4646)
2 | binds | dynactin 1/p150glued (DCTN1), endogenous in HEK293T (from UniProt Q14203-1 1-1278)
3 | binds | JIP4/SPAG9 scaffolding protein, endogenous in HEK293T (protein, UniProt O60271 1-1321) MELEDGVVYQEEPGGSGAVMSERVSGLAGSIYREFERLIGRYDEEVVKELMPLVVAVLENLDSVFAQDQEHQVELELLRDDNEQLITQYEREKALRKHAEEKFIEFEDSQEQEKKDLQTRVESLESQTRQLELKAKNYADQISRLEEREAELKKEYNALHQRHTEMIHNYMEHLERTKLHQLSGSDQLESTAHSRIRKERPISLGIFPLPAGDGLLTPDAQKGGETPGSEQWKFQELSQPRSHTSLKVSNSPEPQKAVEQEDELSDVSQGGSKATTPASTANSDVATIPTDTPLKEENEGFVKVTDAPNKSEISKHIEVQVAQETRNVSTGSAENEEKSEVQAIIESTPELDMDKDLSGYKGSSTPTKGIENKAFDRNTESLFEELSSAGSGLIGDVDEGADLLGMGREVENLILENTQLLETKNALNIVKNDLIAKVDELTCEKDVLQGELEAVKQAKLKLEEKNRELEEELRKARAEAEDARQKAKDDDDSDIPTAQRKRFTRVEMARVLMERNQYKERLMELQEAVRWTEMIRASRENPAMQEKKRSSIWQFFSRLFSSSSNTTKKPEPPVNLKYNAPTSHVTPSVKKRSSTLSQLPGDKSKAFDFLSEETEASLASRREQKREQYRQVKAHVQKEDGRVQAFGWSLPQKYKQVTNGQGENKMKNLPVPVYLRPLDEKDTSMKLWCAVGVNLSGGKTRDGGSVVGASVFYKDVAGLDTEGSKQRSASQSSLDKLDQELKEQQKELKNQEELSSLVWICTSTHSATKVLIIDAVQPGNILDSFTVCNSHVLCIASVPGARETDYPAGEDLSESGQVDKASLCGSMTSNSSAETDSLLGGITVVGCSAEGVTGAATSPSTNGASPVMDKPPEMEAENSEVDENVPTAEEATEATEGNAGSAEDTVDISQTGVYTEHVFTDPLGVQIPEDLSPVYQSSNDSDAYKDQISVLPNEQDLVREEAQKMSSLLPTMWLGAQNGCLYVHSSVAQWRKCLHSIKLKDSILSIVHVKGIVLVALADGTLAIFHRGVDGQWDLSNYHLLDLGRPHHSIRCMTVVHDKVWCGYRNKIYVVQPKAMKIEKSFDAHPRKESQVRQLAWVGDGVWVSIRLDSTLRLYHAHTYQHLQDVDIEPYVSKMLGTGKLGFSFVRITALMVSCNRLWVGTGNGVIISIPLTETNKTSGVPGNRPGSVIRVYGDENSDKVTPGTFIPYCSMAHAQLCFHGHRDAVKFFVAVPGQVISPQSSSSGTDLTGDKAGPSAQEPGSQTPLKSMLVISGGEGYIDFRMGDEGGESELLGEDLPLEPSVTKAERSHLIVWQVMYGNE
